These are yes or no findings as the source states them, for the method shown. In cells and extracts the contact can be indirect. A yes stands for co-enrichment or nearness to the bait. Other partners may have been found.
B1: ARL1 (protein, UniProt P40616 1-181)
chain: MGGFFSSIFSSLFGTREMRILILGLDGAGKTTILYRLQVGEVVTTIPTIGFNVETVTYKNLKFQVWDLGGQTSIRPYWRCYYSNTDAVIYVVDSCDRDRIGISKSELVAMLEEEELRKAILVVFANKQDMEQAMTSSEMANSLGLPALKDRKWQIFKTSATKGTGLDEAMEWLVETLKSRQ
B2: RGS12 (protein, UniProt O14924 1-1447)
chain: MFRAGEASKRPLPGPSPPRVRSVEVARGRAGYGFTLSGQAPCVLSCVMRGSPADFVGLRAGDQILAVNEINVKKASHEDVVKLIGKCSGVLHMVIAEGVGRFESCSSDEEGGLYEGKGWLKPKLDSKALGINRAERVVEEMQSGGIFNMIFENPSLCASNSEPLKLKQRSLSESAATRFDVGHESINNPNPNMLSKEEISKVIHDDSVFSIGLESHDDFALDASILNVAMIVGYLGSIELPSTSSNLESDSLQAIRGCMRRLRAEQKIHSLVTMKIMHDCVQLSTDKAGVVAEYPAEKLAFSAVCPDDRRFFGLVTMQTNDDGSLAQEEEGALRTSCHVFMVDPDLFNHKIHQGIARRFGFECTADPDTNGCLEFPASSLPVLQFISVLYRDMGELIEGMRARAFLDGDADAHQNNSTSSNSDSGIGNFHQEEKSNRVLVVDLGGSSSRHGPGGSAWDGVGGRGAQPWGAPWTGPFCPDPEGSPPFEAAHQTDRFWDLNKHLGPASPVEVPPASLRSSVPPSKRGTVGAGCGFNQRWLPVHVLREWQCGHTSDQDSYTDSTDGWSSINCGTLPPPMSKIPADRYRVEGSFAQPPLNAPKREWSRKAFGMQSIFGPHRNVRKTKEDKKGSKFGRGTGLTQPSQRTSARRSFGRSKRFSITRSLDDLESATVSDGELTGADLKDCVSNNSLSSNASLPSVQSCRRLRERRVASWAVSFERLLQDPVGVRYFSDFLRKEFSEENILFWQACEYFNHVPAHDKKELSYRAREIFSKFLCSKATTPVNIDSQAQLADDVLRAPHPDMFKEQQLQIFNLMKFDSYTRFLKSPLYQECILAEVEGRALPDSQQVPSSPASKHSLGSDHSSVSTPKKLSGKSKSGRSLNEELGDEDSEKKRKGAFFSWSRTRSTGRSQKKREHGDHADDALHANGGLCRRESQGSVSSAGSLDLSEACRTLAPEKDKATKHCCIHLPDGTSCVVAVKAGFSIKDILSGLCERHGINGAAADLFLVGGDKPLVLHQDSSILESRDLRLEKRTLFRLDLVPINRSVGLKAKPTKPVTEVLRPVVARYGLDLSGLLVRLSGEKEPLDLGAPISSLDGQRVVLEEKDPSRGKASADKQKGVPVKQNTAVNSSSRNHSATGEERTLGKSNSIKIKGENGKNARDPRLSKREESIAKIGKKKYQKINLDEAEEFFELISKAQSNRADDQRGLLRKEDLVLPEFLRLPPGSTELTLPTPAAVAKGFSKRSATGNGRESASQPGEQWEPVQESSDSPSTSPGSASSPPGPPGTTPPGQKSPSGPFCTPQSPVSLAQEGTAQIWKRQSQEVEAGGIQTVEDEHVAELTLMGEGDISSPNSTLLPPPSTPQEVPGPSRPGSGTHGSRDLPVNRIIDVDLVTGSAPGRDGGIAGAQAGPGRSQASGGPPTSDLPGLGPVPGEPAKPKTSAHHATFV
B3: PLIN3 (protein, UniProt O60664 1-434)
chain: MSADGAEADGSTQVTVEEPVQQPSVVDRVASMPLISSTCDMVSAAYASTKESYPHIKTVCDAAEKGVRTLTAAAVSGAQPILSKLEPQIASASEYAHRGLDKLEENLPILQQPTEKVLADTKELVSSKVSGAQEMVSSAKDTVATQLSEAVDATRGAVQSGVDKTKSVVTGGVQSVMGSRLGQMVLSGVDTVLGKSEEWADNHLPLTDAELARIATSLDGFDVASVQQQRQEQSYFVRLGSLSERLRQHAYEHSLGKLRATKQRAQEALLQLSQVLSLMETVKQGVDQKLVEGQEKLHQMWLSWNQKQLQGPEKEPPKPEQVESRALTMFRDIAQQLQATCTSLGSSIQGLPTNVKDQVQQARRQVEDLQATFSSIHSFQDLSSSILAQSRERVASAREALDHMVEYVAQNTPVTWLVGPFAPGITEKAPEEKK
B4: GAK (protein, UniProt O14976 1-1311)
chain: MSLLQSALDFLAGPGSLGGASGRDQSDFVGQTVELGELRLRVRRVLAEGGFAFVYEAQDVGSGREYALKRLLSNEEEKNRAIIQEVCFMKKLSGHPNIVQFCSAASIGKEESDTGQAEFLLLTELCKGQLVEFLKKMESRGPLSCDTVLKIFYQTCRAVQHMHRQKPPIIHRDLKVENLLLSNQGTIKLCDFGSATTISHYPDYSWSAQRRALVEEEITRNTTPMYRTPEIIDLYSNFPIGEKQDIWALGCILYLLCFRQHPFEDGAKLRIVNGKYSIPPHDTQYTVFHSLIRAMLQVNPEERLSIAEVVHQLQEIAAARNVNPKSPITELLEQNGGYGSATLSRGPPPPVGPAGSGYSGGLALAEYDQPYGGFLDILRGGTERLFTNLKDTSSKVIQSVANYAKGDLDISYITSRIAVMSFPAEGVESALKNNIEDVRLFLDSKHPGHYAVYNLSPRTYRPSRFHNRVSECGWAARRAPHLHTLYNICRNMHAWLRQDHKNVCVVHCMDGRAASAVAVCSFLCFCRLFSTAEAAVYMFSMKRCPPGIWPSHKRYIEYMCDMVAEEPITPHSKPILVRAVVMTPVPLFSKQRSGCRPFCEVYVGDERVASTSQEYDKMRDFKIEDGKAVIPLGVTVQGDVLIVIYHARSTLGGRLQAKMASMKMFQIQFHTGFVPRNATTVKFAKYDLDACDIQEKYPDLFQVNLEVEVEPRDRPSREAPPWENSSMRGLNPKILFSSREEQQDILSKFGKPELPRQPGSTAQYDAGAGSPEAEPTDSDSPPSSSADASRFLHTLDWQEEKEAETGAENASSKESESALMEDRDESEVSDEGGSPISSEGQEPRADPEPPGLAAGLVQQDLVFEVETPAVLPEPVPQEDGVDLLGLHSEVGAGPAVPPQACKAPSSNTDLLSCLLGPPEAASQGPPEDLLSEDPLLLASPAPPLSVQSTPRGGPPAAADPFGPLLPSSGNNSQPCSNPDLFGEFLNSDSVTVPPSFPSAHSAPPPSCSADFLHLGDLPGEPSKMTASSSNPDLLGGWAAWTETAASAVAPTPATEGPLFSPGGQPAPCGSQASWTKSQNPDPFADLGDLSSGLQGSPAGFPPGGFIPKTATTPKGSSSWQTSRPPAQGASWPPQAKPPPKACTQPRPNYASNFSVIGAREERGVRAPSFAQKPKVSENDFEDLLSNQGFSSRSDKKGPKTIAEMRKQDLAKDTDPLKLKLLDWIEGKERNIRALLSTLHTVLWDGESRWTPVGMADLVAPEQVKKHYRRAVLAVHPDKAAGQPYEQHAKMIFMELNDAWSEFENQGSRPLF
B5: DENND11 (protein, UniProt A4D1U4 1-455)
chain: MVEQGDAAPLLRWAEGPAVSLPQAPQPQAGGWGRGGGGGARPAAEPPRRREPEEPAAPEVLLQPGRLELGDVEEDQVVAVFVVTFDPRSGNMVEWCLPQDIDLEGVEFKSMASGSHKIQSDFIYFRKGPFFGLACFANMPVESELERGARMKSVGILSPSYTLLYRYMHFLENQVRHQLEMPGHYSHLAAFYEDKKGVLHAGPGRGSSLPPVYWLPSIHRYMYPEMKITHPAGCMSQFIKFFGEQILILWKFALLRKRILIFSPPPVGVVCYRVYCCCCLANVSLPGIGGTIPESKPFFYVNVADIESLEVEVSYVACTTEKIFEEKRELYDVYVDNQNVKTHHDHLQPLLKINSADREKYRRLNEQRQMLLYSQEVEEDYNPCEEDLFVLFFLEQNNRIFQTLLEVSASQDKTLTAEHARGMGLDPQGDRSFLLDLLEAYGIDVMLVIDNPCCP
B6: SCAMP3 (protein, UniProt O14828 1-347)
chain: MAQSRDGGNPFAEPSELDNPFQDPAVIQHRPSRQYATLDVYNPFETREPPPAYEPPAPAPLPPPSAPSLQPSRKLSPTEPKNYGSYSTQASAAAATAELLKKQEELNRKAEELDRRERELQHAALGGTATRQNNWPPLPSFCPVQPCFFQDISMEIPQEFQKTVSTMYYLWMCSTLALLLNFLACLASFCVETNNGAGFGLSILWVLLFTPCSFVCWYRPMYKAFRSDSSFNFFVFFFIFFVQDVLFVLQAIGIPGWGFSGWISALVVPKGNTAVSVLMLLVALLFTGIAVLGIVMLKRIHSLYRRTGASFQKAQQEFAAGVFSNPAVRTAAANAAAGAAENAFRAP
B7: STX7 (protein, UniProt O15400 1-261)
chain: MSYTPGVGGDPAQLAQRISSNIQKITQCSVEIQRTLNQLGTPQDSPELRQQLQQKQQYTNQLAKETDKYIKEFGSLPTTPSEQRQRKIQKDRLVAEFTTSLTNFQKVQRQAAEREKEFVARVRASSRVSGSFPEDSSKERNLVSWESQTQPQVQVQDEEITEDDLRLIHERESSIRQLEADIMDINEIFKDLGMMIHEQGDVIDSIEANVENAEVHVQQANQQLSRAADYQRKSRKTLCIIILILVIGVAIISLIIWGLNH

Chains of the proteins cited; added tags and fusions are not shown. Residues count along the entry.
UniProt A7KAX9: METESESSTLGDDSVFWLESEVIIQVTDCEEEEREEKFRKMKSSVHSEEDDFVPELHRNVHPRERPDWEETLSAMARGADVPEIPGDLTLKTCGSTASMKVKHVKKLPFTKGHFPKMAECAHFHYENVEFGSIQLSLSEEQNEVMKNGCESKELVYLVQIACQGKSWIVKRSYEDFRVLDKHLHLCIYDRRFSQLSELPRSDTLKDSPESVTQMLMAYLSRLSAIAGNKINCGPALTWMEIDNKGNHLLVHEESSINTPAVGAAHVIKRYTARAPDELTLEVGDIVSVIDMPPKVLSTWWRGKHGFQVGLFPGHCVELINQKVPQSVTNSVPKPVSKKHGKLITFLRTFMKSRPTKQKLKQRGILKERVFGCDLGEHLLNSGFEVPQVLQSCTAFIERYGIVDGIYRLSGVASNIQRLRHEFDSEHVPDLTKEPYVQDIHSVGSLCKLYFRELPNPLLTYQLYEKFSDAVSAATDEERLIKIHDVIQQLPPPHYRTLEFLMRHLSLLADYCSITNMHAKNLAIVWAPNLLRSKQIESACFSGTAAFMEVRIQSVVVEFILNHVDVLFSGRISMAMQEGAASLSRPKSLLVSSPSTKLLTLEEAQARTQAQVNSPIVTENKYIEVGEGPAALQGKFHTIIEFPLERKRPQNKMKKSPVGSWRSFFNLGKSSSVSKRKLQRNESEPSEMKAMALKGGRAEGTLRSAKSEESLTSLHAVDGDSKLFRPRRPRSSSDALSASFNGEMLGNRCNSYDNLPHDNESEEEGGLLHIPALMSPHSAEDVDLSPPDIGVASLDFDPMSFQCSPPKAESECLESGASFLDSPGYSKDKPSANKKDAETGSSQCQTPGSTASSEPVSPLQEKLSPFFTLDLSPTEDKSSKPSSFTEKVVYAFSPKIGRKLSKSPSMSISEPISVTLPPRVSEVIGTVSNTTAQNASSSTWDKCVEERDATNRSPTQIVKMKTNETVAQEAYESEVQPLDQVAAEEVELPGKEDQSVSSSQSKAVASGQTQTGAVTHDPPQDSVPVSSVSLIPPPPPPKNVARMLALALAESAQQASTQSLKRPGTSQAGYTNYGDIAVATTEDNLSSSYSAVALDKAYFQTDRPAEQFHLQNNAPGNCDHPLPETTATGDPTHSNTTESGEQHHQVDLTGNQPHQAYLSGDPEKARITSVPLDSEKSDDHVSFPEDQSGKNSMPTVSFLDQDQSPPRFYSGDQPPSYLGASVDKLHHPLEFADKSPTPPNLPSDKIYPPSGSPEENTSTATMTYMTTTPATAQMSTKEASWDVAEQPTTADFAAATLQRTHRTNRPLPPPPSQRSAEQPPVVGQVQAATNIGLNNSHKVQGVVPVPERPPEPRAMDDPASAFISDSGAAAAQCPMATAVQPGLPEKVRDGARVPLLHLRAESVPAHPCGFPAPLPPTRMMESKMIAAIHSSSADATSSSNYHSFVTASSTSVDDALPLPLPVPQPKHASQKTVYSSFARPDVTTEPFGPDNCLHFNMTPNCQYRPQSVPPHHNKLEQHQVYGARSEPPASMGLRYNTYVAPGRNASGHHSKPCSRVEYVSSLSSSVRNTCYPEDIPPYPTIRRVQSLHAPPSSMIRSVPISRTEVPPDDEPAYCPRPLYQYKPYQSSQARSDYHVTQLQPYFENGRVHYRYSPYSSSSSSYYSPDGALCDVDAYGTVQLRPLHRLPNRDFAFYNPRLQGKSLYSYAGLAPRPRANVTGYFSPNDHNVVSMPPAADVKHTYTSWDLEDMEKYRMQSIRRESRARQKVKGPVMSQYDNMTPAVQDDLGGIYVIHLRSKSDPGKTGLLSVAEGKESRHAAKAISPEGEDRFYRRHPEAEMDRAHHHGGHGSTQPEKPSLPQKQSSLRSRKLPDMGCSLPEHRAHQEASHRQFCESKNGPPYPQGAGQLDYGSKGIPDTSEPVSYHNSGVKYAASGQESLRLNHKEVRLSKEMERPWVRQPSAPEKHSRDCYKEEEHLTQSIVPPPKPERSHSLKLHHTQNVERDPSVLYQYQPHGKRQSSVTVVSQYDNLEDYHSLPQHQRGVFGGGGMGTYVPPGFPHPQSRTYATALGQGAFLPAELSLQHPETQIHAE
UniProt O15118, residues 23-1278: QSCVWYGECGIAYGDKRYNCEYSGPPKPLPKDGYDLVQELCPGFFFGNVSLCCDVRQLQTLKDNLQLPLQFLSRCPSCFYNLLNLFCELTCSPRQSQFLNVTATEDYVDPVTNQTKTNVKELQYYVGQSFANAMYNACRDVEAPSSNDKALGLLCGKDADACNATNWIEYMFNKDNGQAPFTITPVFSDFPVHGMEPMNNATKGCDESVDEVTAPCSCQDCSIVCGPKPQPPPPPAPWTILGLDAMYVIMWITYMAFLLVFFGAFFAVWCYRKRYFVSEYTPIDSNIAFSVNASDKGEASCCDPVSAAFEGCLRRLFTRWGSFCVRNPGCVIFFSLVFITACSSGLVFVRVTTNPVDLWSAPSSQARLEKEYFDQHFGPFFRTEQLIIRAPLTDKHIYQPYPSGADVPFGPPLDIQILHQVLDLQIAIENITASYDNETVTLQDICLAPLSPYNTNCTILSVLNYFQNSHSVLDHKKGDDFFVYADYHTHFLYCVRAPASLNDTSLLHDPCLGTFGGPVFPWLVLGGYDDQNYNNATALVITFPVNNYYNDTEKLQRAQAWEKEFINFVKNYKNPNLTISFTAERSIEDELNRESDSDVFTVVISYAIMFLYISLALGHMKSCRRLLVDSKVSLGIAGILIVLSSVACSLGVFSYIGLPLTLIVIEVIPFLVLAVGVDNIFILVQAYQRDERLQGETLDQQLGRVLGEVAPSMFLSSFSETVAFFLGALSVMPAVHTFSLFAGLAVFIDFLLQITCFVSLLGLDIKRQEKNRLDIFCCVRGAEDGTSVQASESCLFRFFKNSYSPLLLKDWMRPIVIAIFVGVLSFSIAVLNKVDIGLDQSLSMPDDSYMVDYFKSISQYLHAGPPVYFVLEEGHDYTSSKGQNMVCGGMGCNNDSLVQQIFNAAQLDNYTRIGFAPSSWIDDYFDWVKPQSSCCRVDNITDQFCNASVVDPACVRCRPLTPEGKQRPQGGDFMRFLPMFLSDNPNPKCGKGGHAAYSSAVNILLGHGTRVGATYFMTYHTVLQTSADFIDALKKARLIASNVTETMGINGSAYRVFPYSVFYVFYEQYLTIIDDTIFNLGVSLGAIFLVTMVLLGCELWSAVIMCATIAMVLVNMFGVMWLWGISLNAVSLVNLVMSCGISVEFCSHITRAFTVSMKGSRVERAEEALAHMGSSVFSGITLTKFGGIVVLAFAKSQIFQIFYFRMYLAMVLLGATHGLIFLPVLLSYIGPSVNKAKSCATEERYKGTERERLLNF
UniProt O00443: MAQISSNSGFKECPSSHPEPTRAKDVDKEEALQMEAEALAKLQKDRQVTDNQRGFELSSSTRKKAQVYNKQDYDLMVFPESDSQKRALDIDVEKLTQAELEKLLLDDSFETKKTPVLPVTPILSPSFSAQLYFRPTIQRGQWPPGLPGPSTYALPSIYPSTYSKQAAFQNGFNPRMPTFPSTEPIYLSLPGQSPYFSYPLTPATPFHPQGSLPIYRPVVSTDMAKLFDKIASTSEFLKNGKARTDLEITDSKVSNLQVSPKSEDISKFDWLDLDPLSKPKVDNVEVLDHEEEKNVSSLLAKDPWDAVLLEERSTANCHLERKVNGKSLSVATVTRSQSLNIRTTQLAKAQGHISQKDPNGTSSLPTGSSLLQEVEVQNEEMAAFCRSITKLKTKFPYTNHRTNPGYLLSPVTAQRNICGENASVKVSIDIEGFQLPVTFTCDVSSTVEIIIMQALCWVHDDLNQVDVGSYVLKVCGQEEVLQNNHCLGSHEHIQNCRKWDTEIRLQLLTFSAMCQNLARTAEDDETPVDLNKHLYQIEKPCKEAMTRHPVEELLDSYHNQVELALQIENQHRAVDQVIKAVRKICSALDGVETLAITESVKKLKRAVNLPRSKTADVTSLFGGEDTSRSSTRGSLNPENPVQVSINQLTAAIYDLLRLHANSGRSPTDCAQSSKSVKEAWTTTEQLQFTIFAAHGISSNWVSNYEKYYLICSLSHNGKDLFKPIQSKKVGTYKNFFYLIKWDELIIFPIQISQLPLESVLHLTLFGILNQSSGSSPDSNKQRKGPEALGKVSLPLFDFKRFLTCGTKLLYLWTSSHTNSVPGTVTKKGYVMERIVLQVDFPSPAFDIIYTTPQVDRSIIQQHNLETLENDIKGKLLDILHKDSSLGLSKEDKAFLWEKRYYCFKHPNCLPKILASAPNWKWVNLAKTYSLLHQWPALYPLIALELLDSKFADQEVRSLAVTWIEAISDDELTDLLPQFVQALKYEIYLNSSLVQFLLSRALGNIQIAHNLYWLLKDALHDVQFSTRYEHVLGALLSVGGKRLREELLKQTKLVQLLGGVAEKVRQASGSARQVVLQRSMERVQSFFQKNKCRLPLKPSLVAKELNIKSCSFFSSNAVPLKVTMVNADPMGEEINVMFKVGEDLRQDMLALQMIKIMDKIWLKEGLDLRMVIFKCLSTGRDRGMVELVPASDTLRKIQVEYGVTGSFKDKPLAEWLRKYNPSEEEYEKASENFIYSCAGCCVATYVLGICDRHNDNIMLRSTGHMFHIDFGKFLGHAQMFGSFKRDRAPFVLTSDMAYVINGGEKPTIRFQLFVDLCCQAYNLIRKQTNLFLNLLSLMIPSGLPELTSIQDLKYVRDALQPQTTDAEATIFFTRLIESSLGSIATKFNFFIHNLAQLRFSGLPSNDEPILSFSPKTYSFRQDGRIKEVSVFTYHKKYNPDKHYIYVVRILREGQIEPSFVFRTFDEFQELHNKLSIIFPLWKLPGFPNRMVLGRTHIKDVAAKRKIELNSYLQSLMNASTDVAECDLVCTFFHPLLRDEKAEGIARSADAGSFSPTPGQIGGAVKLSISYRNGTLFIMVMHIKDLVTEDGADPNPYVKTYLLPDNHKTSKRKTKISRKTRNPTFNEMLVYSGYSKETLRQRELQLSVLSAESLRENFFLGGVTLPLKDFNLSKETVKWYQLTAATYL
UniProt O75116: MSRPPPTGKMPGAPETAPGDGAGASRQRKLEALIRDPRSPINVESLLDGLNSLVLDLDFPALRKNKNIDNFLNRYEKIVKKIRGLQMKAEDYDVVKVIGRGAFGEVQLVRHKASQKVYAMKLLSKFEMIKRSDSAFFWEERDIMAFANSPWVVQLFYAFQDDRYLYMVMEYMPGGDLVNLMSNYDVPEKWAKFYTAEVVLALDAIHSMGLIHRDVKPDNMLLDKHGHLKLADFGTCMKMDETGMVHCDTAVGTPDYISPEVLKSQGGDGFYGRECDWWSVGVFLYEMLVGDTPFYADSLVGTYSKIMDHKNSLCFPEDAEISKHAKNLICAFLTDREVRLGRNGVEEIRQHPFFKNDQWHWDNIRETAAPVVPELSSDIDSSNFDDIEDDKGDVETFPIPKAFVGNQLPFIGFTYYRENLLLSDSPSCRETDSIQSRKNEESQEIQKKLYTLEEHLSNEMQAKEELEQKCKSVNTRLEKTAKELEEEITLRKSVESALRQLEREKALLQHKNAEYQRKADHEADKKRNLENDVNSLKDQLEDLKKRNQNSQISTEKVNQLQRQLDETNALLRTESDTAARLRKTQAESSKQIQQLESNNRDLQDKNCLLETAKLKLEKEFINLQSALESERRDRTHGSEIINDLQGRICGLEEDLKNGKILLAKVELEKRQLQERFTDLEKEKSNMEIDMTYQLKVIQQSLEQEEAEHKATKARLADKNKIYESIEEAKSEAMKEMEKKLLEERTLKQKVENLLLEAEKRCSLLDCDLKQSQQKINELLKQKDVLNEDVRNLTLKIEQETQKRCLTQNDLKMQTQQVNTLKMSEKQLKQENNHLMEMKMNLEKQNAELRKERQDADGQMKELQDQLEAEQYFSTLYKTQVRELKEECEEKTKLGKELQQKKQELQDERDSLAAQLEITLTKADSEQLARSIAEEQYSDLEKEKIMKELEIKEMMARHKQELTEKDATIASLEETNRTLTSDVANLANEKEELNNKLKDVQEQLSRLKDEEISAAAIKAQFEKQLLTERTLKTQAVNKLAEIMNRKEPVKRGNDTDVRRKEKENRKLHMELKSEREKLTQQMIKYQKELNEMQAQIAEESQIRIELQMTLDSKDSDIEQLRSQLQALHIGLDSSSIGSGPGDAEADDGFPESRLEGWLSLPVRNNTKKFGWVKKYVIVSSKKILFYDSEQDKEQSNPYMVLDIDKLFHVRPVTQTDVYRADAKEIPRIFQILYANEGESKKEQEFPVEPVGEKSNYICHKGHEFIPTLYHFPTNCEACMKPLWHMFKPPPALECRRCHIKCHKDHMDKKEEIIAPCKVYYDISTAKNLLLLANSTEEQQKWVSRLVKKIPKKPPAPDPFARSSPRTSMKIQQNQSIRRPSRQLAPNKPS

Biological target: C-terminal Kv1.3-TurboID (Kv1.3-V5-TurboID fusion) (human) (UniProt P22001)
Assay: proximity labelling; TurboID fused to Kv1.3, stably expressed in Jurkat T-cells; 200 μM biotin for 1 h; lysis in 8 M urea; biotinylated proteins enriched on streptavidin magnetic beads; label-free quantitative MS against untransduced Jurkat T-cells or between lines (>4-fold, p<0.05; n=3)

Row | binding | Molecule
1 | binds | ADD1 (from UniProt P35611 1-737)
2 | binds | AP1G1 (from UniProt O43747 1-822)
3 | binds | ARHGAP32 (from UniProt A7KAX9 1-2087)
4 | binds | CLTC (from UniProt Q00610 1-1675)
5 | binds | DOCK10 (from UniProt Q96BY6 1-2186)
6 | binds | EIF5 (from UniProt P55010 1-431)
7 | binds | ERBIN (from UniProt Q96RT1 1-1412)
8 | binds | FER (from UniProt P16591 1-822)
9 | binds | NF2 (from UniProt P35240 1-595)
10 | binds | NPC1 (from UniProt O15118 23-1278)
11 | binds | PEAK1 (from UniProt Q9H792 1-1746)
12 | binds | PIK3C2A (from UniProt O00443 1-1686)
13 | binds | ROCK2 (from UniProt O75116 1-1388)
14 | binds | TOM1 (from UniProt O60784 1-492)
15 | binds | TUBB6 (from UniProt Q9BUF5 1-446)
16 | binds | VCP (from UniProt P55072 1-806)
17 | binds | VPS26A (from UniProt O75436 1-327)
18 | binds | B1
19 | binds | B2
20 | binds | B3
21 | binds | B4
22 | binds | B5
23 | binds | B6
24 | binds | B7
